Values from PubChem BioAssay AID1259405 (NCATS, 2018).
Assay: 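Silenced genes that increase secreted GFP made by CHO cells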 (primary screen). Cells: Chinese hamster CHO-K1 ovary cells with stable secreted eGFP expression. Reagent: single siRNA against mouse genes, 0.8 pmol siRNA per well (2 µl of 400 nM stock). Time to read-out: 3 days. Measured: 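Percent of the per-plate non-targeting control median for intracellular GFP per well by laser scanning cytometry and for cell viability by ATP luminescence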. Direction: GFP, % of control: higher = more GFP per well, higher productivity; viability (ATP), % of control: higher = more viable cells (more ATP). Hit rule: 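a knock-down is called active if GFP reaches 120% or more of non-targeting control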.
In all, the deposit lists about 50,000 reagents; below is a part drawn at random. About 4,000 of all reagents (8%) were called active. 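Mouse siRNA library applied to hamster cells; one well for each siRNA.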 The numbers tell different reagents against one gene apart.

Gene | reagent | GFP, % of control | viability (ATP), % of control | activity call
Ccdc47 | 1 | 61.7 | 67.2 | inactive
Ccdc47 | 2 | 90.6 | 68.6 | inactive
Ccdc47 | 3 | 61.8 | 71 | inactive
BC049715 | 1 | 60.9 | 65.6 | inactive
BC049715 | 2 | 64.1 | 73.9 | inactive
BC049715 | 3 | 137 | 136 | active
Echdc1 | 1 | 86.3 | 92.8 | inactive
Echdc1 | 2 | 44.5 | 60.4 | inactive
Echdc1 | 3 | 95.3 | 88 | inactive
Rmnd5a | 1 | 99.8 | 86.2 | inactive
Rmnd5a | 2 | 63.6 | 54 | inactive
Rmnd5a | 3 | 124 | 75.2 | active
Serpinb1c | 1 | 77.7 | 57.9 | inactive
Serpinb1c | 2 | 28.8 | 16.3 | inactive
Serpinb1c | 3 | 86.2 | 98.6 | inactive
Lamb1 | 1 | 148 | 153 | active
Lamb1 | 2 | 116 | 76.7 | inactive
F11 | 1 | 82.1 | 105 | inactive
F11 | 2 | 108 | 71.2 | inactive
F11 | 3 | 55.3 | 36.3 | inactive
Shc3 | 1 | 109 | 68.9 | inactive
Shc3 | 2 | 63.3 | 74.5 | inactive
Shc3 | 3 | 117 | 78.4 | inactive
Ruvbl2 | 1 | 46.1 | 42.8 | inactive
Ruvbl2 | 2 | 73.3 | 41.9 | inactive
Ruvbl2 | 3 | 52.4 | 44.5 | inactive
Bsnd | 1 | 148 | 74.6 | active
Bsnd | 2 | 72.1 | 82.6 | inactive
Bsnd | 3 | 126 | 167 | active
Sfswap | 1 | 87.3 | 76.2 | inactive
Sfswap | 2 | 78.4 | 45.6 | inactive
Sfswap | 3 | 49.5 | 56.4 | inactive
Plk5 | 1 | 246 | 116 | active
Plk5 | 2 | 158 | 68.9 | active
Plk5 | 3 | 55.6 | 68.5 | inactive
Fbln1 | 1 | 111 | 107 | inactive
Fbln1 | 2 | 64.6 | 86.5 | inactive
Smim29 | 1 | 135 | 99 | active
Smim29 | 2 | 94.4 | 93.6 | inactive
Smim29 | 3 | 104 | 94.2 | inactive
Dipk1c | 1 | 62.1 | 60 | inactive
Dipk1c | 2 | 68.4 | 94.6 | inactive
Dipk1c | 3 | 73.9 | 85.9 | inactive
Ilf2 | 1 | 80.1 | 98.3 | inactive
Ilf2 | 2 | 90.2 | 89.3 | inactive
Ap3s2 | 1 | 120 | 73.6 | active
Ap3s2 | 2 | 44 | 68.9 | inactive
Ap3s2 | 3 | 86.5 | 83.6 | inactive
Cntn6 | 1 | 109 | 75.9 | inactive
Cntn6 | 2 | 99.9 | 88.4 | inactive
Hoxa9 | 1 | 77.3 | 65 | inactive
Hoxa9 | 2 | 59.5 | 81.7 | inactive
Hoxa9 | 3 | 40.8 | 78.9 | inactive
Ankle2 | 1 | 84.1 | 81.1 | inactive
Ankle2 | 2 | 97.9 | 57.2 | inactive
Ankle2 | 3 | 76 | 79.4 | inactive
Ddx3y | 1 | 87.2 | 73.5 | inactive
Ddx3y | 2 | 57.7 | 56 | inactive
Ddx3y | 3 | 66.8 | 76.7 | inactive

Ordered by “GFP, % of control” (descending): some entries from above
Gene | reagent | GFP, % of control | viability (ATP), % of control | activity call
Plk5 | 1 | 246 | 116 | active
Plk5 | 2 | 158 | 68.9 | active
Smim29 | 1 | 135 | 99 | active
Fbln1 | 1 | 111 | 107 | inactive
Smim29 | 3 | 104 | 94.2 | inactive
Smim29 | 2 | 94.4 | 93.6 | inactive
Fbln1 | 2 | 64.6 | 86.5 | inactive
Plk5 | 3 | 55.6 | 68.5 | inactive
